Results: patent publication US6706699B2, “Quinolines and uses thereof” (Ariad Pharmaceuticals, Inc., priority 2001, dated 2004)
At least one compound was matched to its structure with a doubt left.

Test: Hydroxyapatite assay (hydroxyapatite adsorption chromatography, bone-targeting potential)
Assay type: physicochemical
Details: corrected retention K=(retention time−void time)/void on TSK-Gel HA 1000 column; linear gradient 10 mM to 500 mM sodium phosphate, 0.15 N NaCl, pH 6.8
Method: Hydroxyapatite is the principal mineral component of bone. Hydroxyapatite adsorption chromatography is used as an assay to evaluate the bone-targeting potential of both individual bone-targeting moieties (“monomers”) and of pharmaceuticals incorporating bone-targeting groups.
Method: The rentention time of a test compound is measured using a linear gradient from 10 mM sodium phosphate, 0.15 N NaCl, pH=6.8 to 500 mM sodium phosphate, 0.15 N NaCl, […] on a TSK-Gel HA 1000 high pressure liquid chromatography column (7.5 mm×75 mm). […] This K value is corrected using two reference compounds to correct from inter-column and inter-system variation to obtain a K′ value.
Reference Compounds: K′ values were determined for known bone targeted compounds, the bisphosphonate, alendronate and tetracycline.

## CN(C)[C@@H]1C(O)=C(C(N)=O)C(=O)[C@@]2(O)C(O)=C3C(=O)c4c(O)cccc4[C@@](C)(O)[C@H]3C[C@@H]12 [tetracycline]
  K′ value: 2.0
